Measured values published in paper PMC11257983 (2024).
Substitutions are numbered along the chain they refer to. These are yes or no findings as the source states them, for the method shown. Binding seen in cells or lysates may run through a third protein. Some binding calls cover weakened binding; strength is not graded here. Where a sequence is shown, tags or fusion partners need not be part of it.

Protein sequences, listed by entry. Tags and fused reporters are not part of them.
UniProt Q24324: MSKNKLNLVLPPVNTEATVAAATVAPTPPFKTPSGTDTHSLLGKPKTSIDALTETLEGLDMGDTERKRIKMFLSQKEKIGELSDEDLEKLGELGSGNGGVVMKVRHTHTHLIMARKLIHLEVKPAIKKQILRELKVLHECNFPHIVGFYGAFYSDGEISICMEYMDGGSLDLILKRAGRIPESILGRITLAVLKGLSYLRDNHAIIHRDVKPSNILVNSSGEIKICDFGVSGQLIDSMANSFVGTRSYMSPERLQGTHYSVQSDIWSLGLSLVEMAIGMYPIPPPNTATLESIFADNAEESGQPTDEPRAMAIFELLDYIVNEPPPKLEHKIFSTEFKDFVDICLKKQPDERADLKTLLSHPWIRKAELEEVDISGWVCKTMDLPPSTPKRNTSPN

Tests used:
Assay in all cases: co-IP; anti-V5 immunoprecipitation of V5-KSR from S2 total lysates, protein A/G agarose, overnight at 4 °C; MEK blotted; without or with co-expressed CNK^2–549–HYP
[1] = target: T1, V5-KSR Y925D (Drosophila) (UniProt Q24171)
T1 sequence: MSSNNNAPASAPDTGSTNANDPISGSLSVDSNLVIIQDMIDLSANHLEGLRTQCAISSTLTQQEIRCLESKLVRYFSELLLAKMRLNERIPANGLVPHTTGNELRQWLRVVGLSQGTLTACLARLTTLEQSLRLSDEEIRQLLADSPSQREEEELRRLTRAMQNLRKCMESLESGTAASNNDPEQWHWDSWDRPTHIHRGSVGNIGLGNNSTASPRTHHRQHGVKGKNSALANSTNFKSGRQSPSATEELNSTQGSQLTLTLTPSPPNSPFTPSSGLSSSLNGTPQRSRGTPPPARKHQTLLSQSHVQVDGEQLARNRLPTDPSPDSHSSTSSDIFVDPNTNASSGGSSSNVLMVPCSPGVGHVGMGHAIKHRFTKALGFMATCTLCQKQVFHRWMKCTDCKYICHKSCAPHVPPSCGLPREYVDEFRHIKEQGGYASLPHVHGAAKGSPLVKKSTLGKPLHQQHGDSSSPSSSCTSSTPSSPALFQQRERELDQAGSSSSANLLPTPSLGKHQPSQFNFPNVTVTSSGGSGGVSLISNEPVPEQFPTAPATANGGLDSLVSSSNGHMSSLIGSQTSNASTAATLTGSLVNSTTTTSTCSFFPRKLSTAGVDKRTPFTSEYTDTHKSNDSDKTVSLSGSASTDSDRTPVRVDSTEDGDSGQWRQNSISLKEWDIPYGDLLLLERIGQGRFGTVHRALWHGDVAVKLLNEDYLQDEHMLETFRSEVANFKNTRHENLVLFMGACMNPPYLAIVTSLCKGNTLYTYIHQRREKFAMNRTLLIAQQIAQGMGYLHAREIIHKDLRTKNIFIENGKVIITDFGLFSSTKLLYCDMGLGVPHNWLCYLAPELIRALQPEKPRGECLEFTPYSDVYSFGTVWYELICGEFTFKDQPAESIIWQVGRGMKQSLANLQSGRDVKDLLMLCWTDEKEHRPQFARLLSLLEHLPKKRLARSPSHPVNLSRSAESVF

[2] = target: T2, V5-KSR R913E (Drosophila) (UniProt Q24171)
T2 sequence: T1 sequence with R913E, D925Y

[3] = target: T3, V5-KSR M902D (Drosophila) (UniProt Q24171)
T3 sequence: T1 sequence with M902D, D925Y

Measured: binding

Myc-MEK (from UniProt Q24324 1-396)
binds: [1] | [2] | [3]
